Some of the results follow. For some assays here: Construct or isoform of the protein are uncertain.
Columns and labels:
Assay in all cases: protein microarray (ProtoArray v5.0), streptavidin-Alexa Fluor 647
Details in all cases: 3'-biotin; 20 mM Tris (pH 7.5), 5 mM MgCl2, 100 mM KCl, 0.1% Tween-20, A/T-rich and random oligonucleotide blockers; temperature not stated; high values mean tight binding
[1] = test system: KCNS2 (human)
[2] = biological target: KCTD18 (UniProt Q6PI47)
[3] = test system: KEL (human)
[4] = test system: KHK (human)
[5] = test system: KIAA0174 (human)
[6] = test system: KIAA0562 (human)
[7] = test system: KIAA0652 (human)
[8] = test system: KIAA1576 (human)
[9] = test system: KIAA1598 (human)
[10] = test system: KIAA1754 (human)
[11] = biological target: KIF2A (UniProt O00139)
[12] = test system: KIFC3 (human)
[13] = test system: KIS (human)
[14] = test system: KITLG (human)
[15] = biological target: KLC3 (UniProt Q6P597)
[16] = biological target: KLC4 (UniProt Q9NSK0)
[17] = test system: KLF12 (human)
[18] = test system: KLHDC1 (human)
[19] = test system: KLHDC2 (human)
[20] = biological target: KLHDC4 (UniProt Q8TBB5)

Amino acid sequences for entries named in this document (tags omitted). A change or cut given only in a name is not applied to a line headed by its entry.
UniProt Q6PI47: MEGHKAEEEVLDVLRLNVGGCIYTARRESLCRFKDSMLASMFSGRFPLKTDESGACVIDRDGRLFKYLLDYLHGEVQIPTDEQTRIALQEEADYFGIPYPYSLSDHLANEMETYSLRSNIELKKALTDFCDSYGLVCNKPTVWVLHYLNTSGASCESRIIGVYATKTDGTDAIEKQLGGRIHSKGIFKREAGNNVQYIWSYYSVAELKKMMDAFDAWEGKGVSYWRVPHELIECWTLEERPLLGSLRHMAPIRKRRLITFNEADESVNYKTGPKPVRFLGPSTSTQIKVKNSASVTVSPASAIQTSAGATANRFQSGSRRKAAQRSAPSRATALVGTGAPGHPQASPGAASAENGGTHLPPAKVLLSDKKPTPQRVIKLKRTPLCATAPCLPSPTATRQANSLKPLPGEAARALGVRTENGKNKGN
UniProt O00139: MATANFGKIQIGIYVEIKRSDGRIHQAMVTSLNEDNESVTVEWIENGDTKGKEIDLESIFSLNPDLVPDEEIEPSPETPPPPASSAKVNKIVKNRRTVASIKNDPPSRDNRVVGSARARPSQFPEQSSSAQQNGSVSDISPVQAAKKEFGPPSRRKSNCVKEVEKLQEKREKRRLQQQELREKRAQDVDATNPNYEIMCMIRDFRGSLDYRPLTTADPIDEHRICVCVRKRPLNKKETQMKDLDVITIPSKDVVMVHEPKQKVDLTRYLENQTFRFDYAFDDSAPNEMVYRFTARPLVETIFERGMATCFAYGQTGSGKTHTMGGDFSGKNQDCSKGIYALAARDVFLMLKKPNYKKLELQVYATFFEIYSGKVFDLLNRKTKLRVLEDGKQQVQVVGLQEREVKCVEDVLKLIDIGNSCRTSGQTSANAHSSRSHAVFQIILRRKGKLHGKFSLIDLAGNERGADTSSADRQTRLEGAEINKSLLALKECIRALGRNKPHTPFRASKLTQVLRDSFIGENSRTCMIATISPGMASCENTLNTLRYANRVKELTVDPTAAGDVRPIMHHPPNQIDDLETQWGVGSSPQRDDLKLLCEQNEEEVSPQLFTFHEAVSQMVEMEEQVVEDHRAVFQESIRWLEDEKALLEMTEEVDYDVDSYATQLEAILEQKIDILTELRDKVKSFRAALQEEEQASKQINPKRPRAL
UniProt Q6P597: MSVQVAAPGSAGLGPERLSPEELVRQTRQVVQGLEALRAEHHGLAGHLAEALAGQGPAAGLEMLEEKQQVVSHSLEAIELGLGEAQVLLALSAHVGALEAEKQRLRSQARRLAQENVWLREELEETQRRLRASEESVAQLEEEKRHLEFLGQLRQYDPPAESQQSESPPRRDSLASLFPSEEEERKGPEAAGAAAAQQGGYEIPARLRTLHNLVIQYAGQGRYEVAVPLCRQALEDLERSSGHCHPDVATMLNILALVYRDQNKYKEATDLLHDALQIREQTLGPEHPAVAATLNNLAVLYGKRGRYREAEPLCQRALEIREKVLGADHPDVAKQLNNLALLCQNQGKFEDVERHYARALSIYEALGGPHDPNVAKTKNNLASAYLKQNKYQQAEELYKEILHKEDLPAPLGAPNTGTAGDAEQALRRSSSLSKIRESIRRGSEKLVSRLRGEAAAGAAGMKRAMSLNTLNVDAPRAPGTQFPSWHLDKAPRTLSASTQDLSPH
UniProt Q9NSK0: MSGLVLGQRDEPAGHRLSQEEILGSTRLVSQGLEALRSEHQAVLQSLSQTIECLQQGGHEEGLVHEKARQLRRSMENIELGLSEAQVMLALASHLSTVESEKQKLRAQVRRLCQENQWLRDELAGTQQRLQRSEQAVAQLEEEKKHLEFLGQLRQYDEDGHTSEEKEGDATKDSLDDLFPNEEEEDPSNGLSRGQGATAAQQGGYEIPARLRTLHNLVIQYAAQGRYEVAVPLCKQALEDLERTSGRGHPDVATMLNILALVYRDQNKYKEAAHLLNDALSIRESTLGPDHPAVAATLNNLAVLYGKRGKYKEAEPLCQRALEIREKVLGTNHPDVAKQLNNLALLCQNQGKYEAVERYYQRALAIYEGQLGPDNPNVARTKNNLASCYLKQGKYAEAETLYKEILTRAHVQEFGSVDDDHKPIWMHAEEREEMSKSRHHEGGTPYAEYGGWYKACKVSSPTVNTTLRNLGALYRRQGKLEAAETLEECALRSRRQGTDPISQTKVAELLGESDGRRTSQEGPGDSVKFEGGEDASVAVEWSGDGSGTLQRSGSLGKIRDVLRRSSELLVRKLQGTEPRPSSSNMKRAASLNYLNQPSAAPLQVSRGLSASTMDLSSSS
UniProt Q8TBB5: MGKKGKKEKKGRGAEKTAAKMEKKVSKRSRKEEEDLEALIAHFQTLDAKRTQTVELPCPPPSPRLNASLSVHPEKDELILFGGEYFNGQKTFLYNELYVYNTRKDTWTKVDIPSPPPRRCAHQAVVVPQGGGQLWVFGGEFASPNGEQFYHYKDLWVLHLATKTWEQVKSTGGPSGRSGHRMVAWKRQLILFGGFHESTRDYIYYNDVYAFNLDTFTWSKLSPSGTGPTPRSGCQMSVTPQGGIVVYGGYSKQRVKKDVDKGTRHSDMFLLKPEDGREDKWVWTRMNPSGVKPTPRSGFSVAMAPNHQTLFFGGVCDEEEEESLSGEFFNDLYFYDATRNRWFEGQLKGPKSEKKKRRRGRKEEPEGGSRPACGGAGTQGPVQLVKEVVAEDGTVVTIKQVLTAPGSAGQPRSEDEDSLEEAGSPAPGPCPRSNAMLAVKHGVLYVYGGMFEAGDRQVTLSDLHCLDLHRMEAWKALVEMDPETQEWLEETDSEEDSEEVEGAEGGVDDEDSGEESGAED

## GGGGACAGGGGTATGGGGAGGGG [G4-3 biotinylated (CtG)]
[1]
  binding signal: -0.298 z-score
[2]
  binding signal: 3.35 z-score
[3]
  binding signal: -0.314 z-score
[4]
  binding signal: -0.336 z-score
[5]
  binding signal: -0.333 z-score
[6]
  binding signal: -0.313 z-score
[7]
  binding signal: -0.303 z-score
[8]
  binding signal: -0.324 z-score
[9]
  binding signal: -0.321 z-score
[10]
  binding signal: -0.33 z-score
[11]
  binding signal: 3.6 z-score
[12]
  binding signal: -0.336 z-score
[13]
  binding signal: -0.308 z-score
[14]
  binding signal: -0.317 z-score
[15]
  binding signal: -0.331 z-score
[16]
  binding signal: -0.33 z-score
[17]
  binding signal: -0.334 z-score
[18]
  binding signal: -0.331 z-score
[19]
  binding signal: -0.307 z-score
[20]
  binding signal: 3.41 z-score
